# PubChem BioAssay AID1508600 (Functional Genomics Laboratory (NCATS/FGL), 2020)
# About 3,700 (7%) of roughly 53,000 sequences were called active.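 How the source made its calls: active means gene knockdowns whose robust z-score for IL-1 alpha signal is at least 2 or at most -2, so actives lie on both sides; inactive means the rest.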 Some of the results follow.
# Experiment: Components of the Cytosolic LPS Sensing Pathway: Gene Identification via Genome-wide siRNA Screen;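 further: robust z of the log signal after scaling to non-targeting control siRNA wells of the plate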
# Settings: RAW264.7 macrophages, IL-1a HTRF, actives lie on both sides, screened at 100 nM (by protocol), cells primed 5 h with Pam3CSK4 first
# How it was run: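 RAW264.7; siRNA 100 nM final, RNAiMAX, 48h 37 degrees C; Pam3CSK4 5 h; LipidA + TransIT-TKO 24 h; IL-1a HTRF; CellTiter-Glo viability; robust z vs negative-control median.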
row,Sequence,z-score
1,GCCUUUUUAACCAACACAUTT against Gphn,inactive: -0.594
2,GCCGAGUUACAUCGGUGAUTT against Nup93,inactive: 1.64
3,GGAUGAGGCGAUUGAGAUUTT against Clic6,inactive: -1.05
4,GGUGAUAACAAUGUCCCUUTT against Lce1f,inactive: -1.08
5,GUUGAGGAUAACAUUGAACTT against Trp53rka,inactive: -0.0336
6,CCAAAUGACUAGCACCAGUTT against Arl5c,active: -2.22
7,GGCAUCUGAACAGGCAGACTT against Acvrl1,inactive: -0.94
8,GGUGAUUGGUGUAAAAUCUTT against Gdi2,inactive: -1.15
9,GUGUUCAGUAUGCUGGCAGTT against Klra6,inactive: 1.03
10,GGAAAAAAUGAACAAGACATT against Dele1,inactive: 0.959
11,GCUUCAACCCGGUCACACUTT against Kif6,active: 2.81
12,CGUCUCCAUAGAUCUAGAUTT against Creb3,inactive: -0.748
13,GGGAUGAGUCUUUAAAAUCTT against Fam228a,inactive: 0.604
14,GGUGUCAUCCUUUACAGUUTT against Ate1,inactive: 1.71
15,GGCCUAAGGACAAUUAUUUTT against Lrrc19,inactive: 1.31
16,GCAUCGAAAAUCUUUCCAATT against Fibcd1,inactive: 1.6
17,UCUACCAUCUUUGCCUACCTT against Olfr1182,inactive: 0.475
18,GCGGAAUUGGAAAAUGCCGTT against Hbs1l,inactive: 0.283
19,GGCUAAAUGCCGAUGUACUTT against Gapvd1,active: 2.08
20,GGAACUCAGAGGUGAAAGCTT against Olfr70,inactive: 0.516
21,CCUCCUCUCCUAAAUGCCUTT against Llcfc1,inactive: -1.23
22,GCCAGUCAUGCCUAUUUUCTT against Zmym6,inactive: -0.528

row,Sequence,z-score
1,GCUAACACUGCGCUUGGAATT against 1700067K01Rik,inactive: -1.39
2,GCUCGUACACAAUGAACACTT against Jam2,inactive: -0.0132
3,GGAGAGGUAAAAAUGUUGUTT against Dnaja1,inactive: 1.16
4,GGCAUUCCUUAACUACUACTT against Lbp,inactive: -0.38
5,CCUAGAGCUUUUUAUAACATT against Septin7,inactive: 1.06
6,GGAUGUUUGGACAAUCUAUTT against Itga4,inactive: 0.634
7,GCUUGUAUGAGAUUACCUATT against Ttc1,inactive: 1.19
8,CCUUCUAUUCACUUUACCATT against Vmn1r87,inactive: -0.907
9,GCACAAGUAUUCUCAAAUGTT against Adcy8,inactive: 0.593
10,GGCAUGAUCAGCACAUCACTT against Rpap1,inactive: 0.578
11,GGCCAGAUUACUCACCUAUTT against Birc3,inactive: -0.177
12,GCCUAUGGCUGGUCAGUGUTT against Serpina3h,inactive: -0.514
13,CCCGGUACUAUAAUGCCAATT against Zmynd19,inactive: -0.0599
14,GCGAACAACCACGUUUUUCTT against Ddx18,inactive: 0.388
15,GGGAAGCAUGCAGAACAGCTT against Parg,inactive: -1.42
16,GGGCUGUGGAAACAAUUUATT against Zpld1,active: 2.32
17,GGGAUUCUUUAAGAGCUCUTT against Prdx2,inactive: 0.339
18,CCAUUCUUGGAUAGACAUATT against Pilrb1,inactive: 0.0372
19,GGAUUCUCUGUAGCUCAAATT against Magea5,inactive: -1.59
20,GGAGGUCACCCUCAAGAUGTT against Gjb4,inactive: -0.608
21,GCCCUACGCUCGAAUGGAATT against Il17b,inactive: -0.224
22,CGUGCCAAUUGAAAAAAACTT against Prkn,inactive: 1.23

# Looked up one by one from the entries so far (7):
row,Sequence,z-score
16,GGGCUGUGGAAACAAUUUATT against Zpld1,active: 2.32
13,CCCGGUACUAUAAUGCCAATT against Zmynd19,inactive: -0.0599
17,GGGAUUCUUUAAGAGCUCUTT against Prdx2,inactive: 0.339
19,GGAUUCUCUGUAGCUCAAATT against Magea5,inactive: -1.59
10,GGCAUGAUCAGCACAUCACTT against Rpap1,inactive: 0.578
3,GGAGAGGUAAAAAUGUUGUTT against Dnaja1,inactive: 1.16
14,GCGAACAACCACGUUUUUCTT against Ddx18,inactive: 0.388

# Additional results follow:

row,Sequence,z-score
1,GGCAAUAACCACAUGAAAGTT against Sgtb,inactive: -0.43
2,CCUAAUUAUGUCAAGAUGATT against Foxm1,inactive: -1.5
3,CCAAAGGUAUAUAGAGGUUTT against Plce1,inactive: 1.41
4,GGCGAUGUGAUGGAUGUAGTT against Hira,inactive: -0.551
5,CGAAUUUGGCUUCAGAUGATT against Ppp2r1b,inactive: -0.707
6,GGAAUACUAUGUUGAUUACTT against Lrrtm1,inactive: 0.199
7,GGACUCAUGAUUACAGCACTT against Tas2r134,inactive: -1.98
8,GGCAGAUCAACCUCAGCAATT against Snd1,inactive: -1.68
9,GGAAUGAUGACUCCUCCUGTT against Klri2,inactive: -0.293
10,GGCGAAAGUGCUUUUCCUGTT against Gbp8,inactive: 1.03
11,GGGCAUCGGAGCUUUCUUATT against 9530009G21Rik,inactive: -1.06
12,GCGGCAGUUUGAUUUUGGUTT against Wsb2,inactive: 0.95
13,GCAACCAACUAUGGACCGCTT against Sec24d,inactive: 0.87
14,GGGAUUUCUAUCAAGGGACTT against Klf16,inactive: 0.0514
15,GGUUUUGUUAAAGAAGACGTT against 4833439L19Rik,active: -2.25
16,GGUAUUUUUCAUGGCUCUCTT against Olfr305,inactive: -0.0328
17,GGUAAAAUCACAGAAGAAGTT against Ddx55,inactive: -0.595
18,CCGUCCAUUGCACUGGAUATT against Arntl2,inactive: 0.024
19,GGAGUAUUUACACUUCGACTT against H2-Ob,inactive: 0.713
20,GGACUAUUUCACAAACGCATT against Moxd1,inactive: -1.2
21,GGUCCAUGAUUGAAACACGTT against Srpr,inactive: 0.798
22,GGGCUUGUUGUCCUACUUCTT against Olfr390,inactive: 1.16

row,Sequence,z-score
1,GCCUUGGCAGUAGUCUACUTT against Olfr429,inactive: 0.378
2,GGGAUUGAACUUAGGUUUGTT against Ifitm10,inactive: 1.45
3,GGUAGAGGAUGACUUCCUGTT against Ptpn5,inactive: -1.37
4,GGGAUUCGACAGCAGAUCATT against H2-M10.4,inactive: -1.37
5,GCCAGUGAGUUUAUCAGCCTT against B4galnt3,inactive: 0.706
6,GGAACGAAUUUUAGAUGCATT against Rbbp8,inactive: 1.14
7,CGUAUCGCUGUUCAUGUUUTT against 5330438D12Rik,inactive: -1
8,GGUCAUUGGUCGCUGGUCATT against Gzmm,inactive: -1.29
9,GCAAGUGUCUCAAGUGCAGTT against Lhx3,inactive: 0.0347
10,GCAAGCAGAUCUGAUAUCATT against Pan3,inactive: -1.88
11,GCAAAGUGGAUAUAGUGUCTT against Gprin1,inactive: -0.217
12,GGUAGAUCCUAUCCUGUCUTT against Foxo4,active: -2.57
13,GGCUCUCGUUAAAUACUGGTT against Pik3r4,inactive: 0.363
14,GGUUCAGACCAUCUUGGAATT against Bag3,inactive: -0.936
15,CCGAGUAUAUCUAUAAUAGTT against Ear14,inactive: -0.607
16,GGAAUUCCAAGUCAUUAUUTT against B230340J04Rik,inactive: 0.664
17,GCGCAUCAAUCUUGGAGGATT against Actr5,inactive: 0.0634
18,GCAACUAGUUAGUGCCUCCTT against Klf15,inactive: 1.45
19,GGAGAAAUAAAUGACUUGCTT against Zswim2,inactive: -0.762
20,CCAUGGUUAUUAAUUAUGGTT against Slc24a4,inactive: -0.624
21,GCAGGUAUAAGAAGAGAAUTT against 1700128F08Rik,inactive: 0.0947
22,GGGAGGUGCAGCUGAUGAATT against Tesk1,inactive: -0.89

row,Sequence,z-score
1,GCAAAUCCACGCUAAAGCATT against Nxph1,inactive: -0.272
2,GGCCUAUUCAGCGAAGAUGTT against Ppp5c,inactive: -0.661
3,CCCAGACGAGGAUUUAUCCTT against Chd4,inactive: -1.61
4,GCAGACAUUGCACAAACCCTT against Ankrd10,inactive: 0.355
5,CCAAAUUUAGCCAGGAUUATT against Ogn,inactive: 0.545
6,GCGCAUCGAAAAAUGGAUUTT against Rgl3,inactive: 0.236
7,CCAUCUCUUCGACAAUUAUTT against Chrne,inactive: -0.00578
8,GCGAAAGUGUUUGGCUGUATT against Csnka2ip,inactive: -0.739
9,GGAUACAUUAAUUGUUUGGTT against Ppp4r3b,active: 2.55
10,CGAAACUCGUGAAUGAAAATT against Gtse1,inactive: -0.0949
11,GGUGUUAGAAAAGUUGAUUTT against Vegfd,inactive: 1.31
12,GGUUUUUAUUUAAAGCACGTT against Atp5a1,inactive: 0.437
13,GCCUAUUACCUACACACAGTT against Rhof,inactive: -0.954
14,CCUCUUCGGGAAAAUUCUATT against Dao,inactive: -0.083
15,CCACUUCCACCAAUGUAUATT against Igsf9,inactive: -1.44
16,CCACAAGCUCUUUGUUUGCTT against Habp2,inactive: -0.654
17,AAACAUCACCAACAUCAGUTT against Olfr6,inactive: -0.267
18,GCUACCAUAUAUAUCUCACTT against Nox3,inactive: 1.53
19,GCCAGGACAAUCUGACUAUTT against Napsa,active: 3.48
